From paper PMC8807876

Biological target: T1, endogenous MTBP (human (endogenous in 293T)) (UniProt Q96DY7)
T1 sequence: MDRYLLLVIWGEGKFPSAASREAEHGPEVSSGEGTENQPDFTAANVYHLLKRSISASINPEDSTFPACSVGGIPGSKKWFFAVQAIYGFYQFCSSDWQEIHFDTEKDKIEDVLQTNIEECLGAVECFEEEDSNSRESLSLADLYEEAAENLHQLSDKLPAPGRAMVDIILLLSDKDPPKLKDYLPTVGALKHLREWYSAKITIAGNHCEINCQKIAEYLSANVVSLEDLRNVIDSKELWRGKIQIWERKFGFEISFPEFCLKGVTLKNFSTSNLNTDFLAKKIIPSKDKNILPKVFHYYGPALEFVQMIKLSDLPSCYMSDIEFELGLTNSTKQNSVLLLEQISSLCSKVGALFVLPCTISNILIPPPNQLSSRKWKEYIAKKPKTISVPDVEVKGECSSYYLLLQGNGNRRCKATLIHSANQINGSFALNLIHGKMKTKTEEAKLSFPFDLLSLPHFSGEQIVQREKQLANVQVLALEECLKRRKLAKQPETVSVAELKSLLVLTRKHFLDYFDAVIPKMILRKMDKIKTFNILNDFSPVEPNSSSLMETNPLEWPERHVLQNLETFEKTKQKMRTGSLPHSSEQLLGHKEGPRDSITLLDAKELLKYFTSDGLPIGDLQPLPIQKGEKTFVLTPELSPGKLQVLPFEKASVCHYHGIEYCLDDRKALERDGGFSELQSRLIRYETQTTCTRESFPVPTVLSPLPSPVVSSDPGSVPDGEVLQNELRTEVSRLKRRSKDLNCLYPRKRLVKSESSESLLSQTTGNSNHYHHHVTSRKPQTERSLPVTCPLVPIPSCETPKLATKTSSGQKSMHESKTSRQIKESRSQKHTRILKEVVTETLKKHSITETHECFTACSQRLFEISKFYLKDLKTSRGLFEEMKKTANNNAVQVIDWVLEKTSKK
Assay: co-IP; Fig 3B: N-terminally 3HA-tagged Treslin/TICRR fragments transiently transfected into 293T; IP of endogenous MTBP with rabbit anti-MTBP (amino acids 1-284) on protein G magnetic beads, control IgG IP; 20 mM Hepes, 200 mM NaCl, 10% glycerol, 0.1% Triton; anti-HA immunoblot

Substance	binding
3HA-Treslin/TICRR fragment with amino acids 487–517 deleted (human) (domain or fragment)	binds
3HA-Treslin/TICRR fragment with amino acids 545–557 deleted (human) (domain or fragment)	binds
3HA-Treslin/TICRR fragment with amino acids 518–543 deleted (human) (domain or fragment)	no binding

These are yes or no findings as the source states them, for the method shown. In cells and extracts the contact can be indirect. Binding can be weak; no strength is given.
